In US7648824B2, “Method of sequencing DNA” (Qiagen GmbH, priority 2000, dated 2010):

System: pUC19-derived template
Test: PPi-based DNA sequencing of pUC19-derived template with and without Rp-dATPαS
Assay type: biochemical
Conditions: stepwise nucleotide addition, 10 U (exo-) Klenow, 40 mU apyrase, with dCTP, dGTP and dTTP

Row | Structure (SMILES) | signal quality and read-length
1 | Nc1ncnc2c1ncn2[C@H]1C[C@H](O)[C@@H](COP(O)(=S)OP(=O)(O)OP(=O)(O)O)O1 (single isomer, unassigned) [Sp isomer] | a longer read-length is obtained
2 | Nc1ncnc2c1ncn2[C@H]1C[C@H](O)[C@@H](COP(O)(=S)OP(=O)(O)OP(=O)(O)O)O1 (stereo partly drawn) [dATPαS, deoxyadenosine α-thiotriphosphate] | signal quality gradually deteriorates
